Laboratory results from article PMC3224144.
No constants are given. Whether binding was seen depends on the method and setting. For some assays here: Binding calls can cover weak binding; strength is not graded here.

Assays:
Assay in all cases: two-hybrid; array-based yeast two-hybrid screens; each protein as bait (Gal4 DNA-binding domain) and as prey (Gal4 activation domain), N- and C-terminal fusions; bait-prey vector pairs pDEST32-pDEST22, pGBKT7g-pGADT7g, pGBKT7g-pGADCg, pGBKCg-pGADCg, pGBKCg-pGADT7g; ten configurations a pair; positives retested
U (bacteriophage lambda) = molecular target: T1, U (bacteriophage lambda) (UniProt P03732)
T1 sequence: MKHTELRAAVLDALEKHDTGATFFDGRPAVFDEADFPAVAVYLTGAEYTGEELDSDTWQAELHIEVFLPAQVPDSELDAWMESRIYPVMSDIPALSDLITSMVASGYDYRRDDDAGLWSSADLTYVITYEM

[1] = molecular target: T2, antiterminator N (bacteriophage lambda) (UniProt P03045)
T2 sequence: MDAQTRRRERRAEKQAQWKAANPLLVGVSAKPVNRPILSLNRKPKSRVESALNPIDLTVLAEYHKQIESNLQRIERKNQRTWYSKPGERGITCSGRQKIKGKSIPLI

[2] = molecular target: T3, DNA packaging protein A (bacteriophage lambda) (UniProt P03708)
T3 sequence: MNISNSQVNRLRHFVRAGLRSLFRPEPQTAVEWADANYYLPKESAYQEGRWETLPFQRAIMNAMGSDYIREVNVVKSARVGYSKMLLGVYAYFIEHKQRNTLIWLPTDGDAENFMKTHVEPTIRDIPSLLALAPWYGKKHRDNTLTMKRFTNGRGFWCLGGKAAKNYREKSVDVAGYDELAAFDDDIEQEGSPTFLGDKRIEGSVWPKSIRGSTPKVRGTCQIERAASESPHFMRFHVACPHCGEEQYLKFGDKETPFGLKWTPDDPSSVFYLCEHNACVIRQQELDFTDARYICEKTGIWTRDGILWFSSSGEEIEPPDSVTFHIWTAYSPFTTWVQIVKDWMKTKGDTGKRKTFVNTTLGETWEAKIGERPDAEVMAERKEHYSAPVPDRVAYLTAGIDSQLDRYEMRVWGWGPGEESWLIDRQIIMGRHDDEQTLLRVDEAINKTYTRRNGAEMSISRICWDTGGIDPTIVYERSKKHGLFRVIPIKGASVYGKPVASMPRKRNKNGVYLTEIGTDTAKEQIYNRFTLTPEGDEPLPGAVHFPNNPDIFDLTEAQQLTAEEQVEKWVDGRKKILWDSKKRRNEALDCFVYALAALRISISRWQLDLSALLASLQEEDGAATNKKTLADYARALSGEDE

[3] = molecular target: T4, RexB (bacteriophage lambda) (UniProt P03759)
T4 sequence: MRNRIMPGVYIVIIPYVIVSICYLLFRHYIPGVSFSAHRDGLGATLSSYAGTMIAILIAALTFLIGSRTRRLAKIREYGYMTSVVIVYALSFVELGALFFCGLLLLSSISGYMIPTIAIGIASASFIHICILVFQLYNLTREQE

[4] = molecular target: T5, tape measure protein H (bacteriophage lambda) (UniProt P03736)
T5 sequence: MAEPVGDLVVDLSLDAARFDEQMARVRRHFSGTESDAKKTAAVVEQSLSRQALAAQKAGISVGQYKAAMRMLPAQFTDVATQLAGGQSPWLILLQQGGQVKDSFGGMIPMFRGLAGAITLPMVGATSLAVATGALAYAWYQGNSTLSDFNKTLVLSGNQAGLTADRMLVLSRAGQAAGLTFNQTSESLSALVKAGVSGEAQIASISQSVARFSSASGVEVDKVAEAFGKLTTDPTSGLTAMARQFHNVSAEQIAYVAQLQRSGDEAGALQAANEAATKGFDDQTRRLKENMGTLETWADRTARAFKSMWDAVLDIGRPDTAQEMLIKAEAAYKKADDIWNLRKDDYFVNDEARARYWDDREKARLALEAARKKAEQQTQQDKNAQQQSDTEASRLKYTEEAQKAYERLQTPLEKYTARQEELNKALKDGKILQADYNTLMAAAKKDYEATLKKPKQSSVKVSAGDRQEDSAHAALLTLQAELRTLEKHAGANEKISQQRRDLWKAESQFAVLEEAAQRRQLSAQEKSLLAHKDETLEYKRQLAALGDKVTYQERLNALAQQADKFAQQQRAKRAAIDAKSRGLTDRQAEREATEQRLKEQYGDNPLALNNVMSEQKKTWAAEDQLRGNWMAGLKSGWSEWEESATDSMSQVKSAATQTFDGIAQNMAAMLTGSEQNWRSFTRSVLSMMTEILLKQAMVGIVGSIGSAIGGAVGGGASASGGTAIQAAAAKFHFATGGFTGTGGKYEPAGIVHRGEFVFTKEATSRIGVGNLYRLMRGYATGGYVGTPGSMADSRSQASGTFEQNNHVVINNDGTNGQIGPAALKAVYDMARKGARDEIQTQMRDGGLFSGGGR

[5] = molecular target: T6, Nu1 (bacteriophage lambda) (UniProt P03707)
T6 sequence: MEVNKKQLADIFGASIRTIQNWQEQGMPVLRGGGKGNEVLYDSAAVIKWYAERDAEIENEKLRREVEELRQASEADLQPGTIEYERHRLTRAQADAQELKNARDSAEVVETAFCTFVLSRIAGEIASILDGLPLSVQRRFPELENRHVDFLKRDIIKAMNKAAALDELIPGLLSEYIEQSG

[6] = molecular target: T7, Integrase (Int) (bacteriophage lambda) (UniProt P03700)
T7 sequence: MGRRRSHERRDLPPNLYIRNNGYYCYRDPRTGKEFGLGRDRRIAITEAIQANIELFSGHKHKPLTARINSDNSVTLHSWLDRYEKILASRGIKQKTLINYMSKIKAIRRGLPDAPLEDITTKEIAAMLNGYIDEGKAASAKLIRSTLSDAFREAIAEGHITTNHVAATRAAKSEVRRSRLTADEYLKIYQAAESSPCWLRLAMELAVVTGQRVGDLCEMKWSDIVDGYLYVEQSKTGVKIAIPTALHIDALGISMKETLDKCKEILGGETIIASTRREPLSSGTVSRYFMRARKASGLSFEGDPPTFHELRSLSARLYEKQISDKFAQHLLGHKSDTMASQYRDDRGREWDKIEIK

[7] = molecular target: Ea8.5 (bacteriophage lambda)
[8] = molecular target: Orf79 (bacteriophage lambda)
[9] = molecular target: scaffolding protein Nu3 (bacteriophage lambda)

Ea47 (bacteriophage lambda)
binding (U (bacteriophage lambda)): binds
binding [1]: binds
binding [2]: no binding

Ren (bacteriophage lambda)
binding [3]: binds
binding [4]: binds

Orf64 (bacteriophage lambda)
binding [5]: binds

Orf48 (bacteriophage lambda)
binding [6]: binds
binding [3]: binds

B1: NinB (protein, UniProt P03765 1-146)
chain: MKKLTFEIRSPAHQQNAIHAVQQILPDPTKPIVVTIQERNRSLDQNRKLWACLGDVSRQVEWHGRWLDAESWKCVFTAALKQQDVVPNLAGNGFVVIGQSTSRMRVGEFAELLELIQAFGTERGVKWSDEARLALEWKARWGDRAA
binding [7]: binds
binding [8]: binds

B2: Z (protein, UniProt P03731 1-192)
chain: MAIKGLEQAVENLSRISKTAVPGAAAMAINRVASSAISQSASQVARETKVRRKLVKERARLKRATVKNPQARIKVNRGDLPVIKLGNARVVLSRRRRRKKGQRSSLKGGGSVLVVGNRRIPGAFIQQLKNGRWHVMQRVAGKNRYPIDVVKIPMAVPLTTAFKQNIERIRRERLPKELGYALQHQLRMVIKR
binding [9]: binds
